Assay [1] deals with T1, PH-EGFP-Smaug (Drosophila), Q23972.
T1 chain: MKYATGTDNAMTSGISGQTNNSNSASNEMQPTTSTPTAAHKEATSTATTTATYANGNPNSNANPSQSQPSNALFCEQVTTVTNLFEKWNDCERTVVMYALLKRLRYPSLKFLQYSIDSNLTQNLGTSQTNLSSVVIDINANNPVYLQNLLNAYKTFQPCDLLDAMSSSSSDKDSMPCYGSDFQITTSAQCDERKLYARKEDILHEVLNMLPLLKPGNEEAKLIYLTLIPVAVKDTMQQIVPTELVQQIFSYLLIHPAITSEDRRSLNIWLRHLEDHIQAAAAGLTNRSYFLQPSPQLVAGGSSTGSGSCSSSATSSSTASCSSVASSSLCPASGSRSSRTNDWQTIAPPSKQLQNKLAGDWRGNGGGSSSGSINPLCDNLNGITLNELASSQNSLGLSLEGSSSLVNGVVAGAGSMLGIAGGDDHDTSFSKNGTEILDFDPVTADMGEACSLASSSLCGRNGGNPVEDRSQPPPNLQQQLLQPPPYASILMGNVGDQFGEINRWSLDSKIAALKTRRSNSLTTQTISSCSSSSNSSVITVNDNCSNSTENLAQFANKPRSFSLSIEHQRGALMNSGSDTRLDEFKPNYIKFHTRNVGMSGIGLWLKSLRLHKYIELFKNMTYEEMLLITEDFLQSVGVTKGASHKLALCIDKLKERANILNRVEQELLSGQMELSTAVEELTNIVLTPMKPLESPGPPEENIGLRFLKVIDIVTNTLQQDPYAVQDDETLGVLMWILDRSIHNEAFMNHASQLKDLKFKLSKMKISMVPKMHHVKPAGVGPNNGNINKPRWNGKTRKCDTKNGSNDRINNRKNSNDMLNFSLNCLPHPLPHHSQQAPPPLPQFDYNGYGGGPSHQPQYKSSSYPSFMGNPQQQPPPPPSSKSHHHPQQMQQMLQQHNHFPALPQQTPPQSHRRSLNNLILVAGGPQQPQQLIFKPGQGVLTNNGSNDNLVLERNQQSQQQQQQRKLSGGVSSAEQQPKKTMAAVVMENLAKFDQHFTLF
The assay is described as follows: ReLo. The following applies: remark: other sources report otherwise.

The target is the same in assay [2]. The assay is described as follows: ReLo. The settings on record: remark: other sources report otherwise.
Assay [3] concerns the target T2, GST-Smoothened 970-1003 (SBR) wildtype (Drosophila) (UniProt P91682).
T2 sequence: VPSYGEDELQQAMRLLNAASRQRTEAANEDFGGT
The assay is described as follows: pull-down.

Assay [4] addresses T3, Smoothened SBR (970-1003), ReLo (Drosophila) (UniProt P91682).
T3 sequence: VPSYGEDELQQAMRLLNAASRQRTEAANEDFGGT
The assay is described as follows: ReLo.

Assay [5] addresses T4, Smoothened cytotail (Smo 556-1036), ReLo (Drosophila) (UniProt P91682).
T4 sequence: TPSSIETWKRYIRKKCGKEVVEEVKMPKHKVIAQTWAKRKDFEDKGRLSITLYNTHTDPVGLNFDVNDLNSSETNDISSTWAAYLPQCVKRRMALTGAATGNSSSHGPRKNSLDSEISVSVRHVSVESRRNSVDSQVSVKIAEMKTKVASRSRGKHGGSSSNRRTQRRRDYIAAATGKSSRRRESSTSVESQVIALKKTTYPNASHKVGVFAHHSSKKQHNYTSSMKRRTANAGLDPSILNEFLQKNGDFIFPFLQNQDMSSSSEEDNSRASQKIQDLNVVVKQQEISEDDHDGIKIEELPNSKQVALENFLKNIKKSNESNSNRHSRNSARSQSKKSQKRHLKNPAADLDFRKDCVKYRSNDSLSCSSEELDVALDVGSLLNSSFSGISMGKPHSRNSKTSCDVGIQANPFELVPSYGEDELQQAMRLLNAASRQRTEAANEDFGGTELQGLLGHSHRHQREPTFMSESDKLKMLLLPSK
The assay is described as follows: ReLo.

In assay [6] the target is T5, Smoothened (ReLo) (Drosophila) (UniProt P91682).
T5 sequence: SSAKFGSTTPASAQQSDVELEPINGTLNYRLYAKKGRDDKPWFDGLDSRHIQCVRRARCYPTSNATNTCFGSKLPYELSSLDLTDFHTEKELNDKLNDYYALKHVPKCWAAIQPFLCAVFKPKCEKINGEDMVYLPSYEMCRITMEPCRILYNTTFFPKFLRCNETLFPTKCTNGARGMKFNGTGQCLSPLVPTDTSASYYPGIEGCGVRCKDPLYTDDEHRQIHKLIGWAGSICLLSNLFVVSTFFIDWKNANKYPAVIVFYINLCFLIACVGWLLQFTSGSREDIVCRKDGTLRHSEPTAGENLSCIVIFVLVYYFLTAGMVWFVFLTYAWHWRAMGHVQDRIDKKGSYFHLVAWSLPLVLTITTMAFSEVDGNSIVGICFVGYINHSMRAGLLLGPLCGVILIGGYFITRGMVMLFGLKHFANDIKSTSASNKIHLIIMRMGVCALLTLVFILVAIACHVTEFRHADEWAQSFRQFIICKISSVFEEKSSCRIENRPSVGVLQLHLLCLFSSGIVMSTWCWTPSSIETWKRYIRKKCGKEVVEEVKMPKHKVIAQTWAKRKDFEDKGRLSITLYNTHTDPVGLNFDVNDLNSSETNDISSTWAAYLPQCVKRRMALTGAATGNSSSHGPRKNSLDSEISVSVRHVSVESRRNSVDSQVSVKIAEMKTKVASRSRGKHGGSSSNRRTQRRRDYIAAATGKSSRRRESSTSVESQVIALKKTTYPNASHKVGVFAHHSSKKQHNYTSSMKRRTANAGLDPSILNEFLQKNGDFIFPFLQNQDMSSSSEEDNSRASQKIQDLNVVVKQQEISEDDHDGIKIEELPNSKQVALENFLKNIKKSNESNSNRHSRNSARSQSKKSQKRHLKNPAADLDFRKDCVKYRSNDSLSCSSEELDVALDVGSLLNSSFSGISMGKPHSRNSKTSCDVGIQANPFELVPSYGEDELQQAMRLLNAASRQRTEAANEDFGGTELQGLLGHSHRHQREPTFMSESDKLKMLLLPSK
Nature of the assay: ReLo.

Assay [7] has as its target T6, Smoothened 958-1003 (ReLo) (Drosophila) (UniProt P91682).
T6 sequence: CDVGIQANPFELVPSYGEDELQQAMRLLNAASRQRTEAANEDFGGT
The assay is described as follows: ReLo.

No constants are given. Whether binding was seen depends on the method and setting. Some entries that bind do so weakly or less than the wild type. For some of these results: Where a sequence is shown, tags or fusion partners need not be part of it.

B1: Cup, Q9VMA3 1-1117 (protein)
chain: MQMAEAEQENGAGALKIATNAGATDRPAHQQLPLPVEDQQDEVLTPAEKGKFEYPPPPPPPTPVQAPLATKATALNASQEHDDDEANSEKWEDPCAPPPPPPLPTSAFLATGLGYLKLPAFKLKDALEKAITKLEANKRTLKASPESSRSIKNKNVVALEMLPRRSNPETIGDGSMLASTSTAVMLQTKKPAVIVEMERRCKIINLLAKQNQILESISGEAIPMHGPSKHLHEDEGLTLQVLSARASTPYTQPSSMLSCTAVSCDLEHDSPRKQVASKEAVPEQQSSQVQQKRPPSTGIHKPGSLRAPKAVRPTTAPVVSSKPVKSYTRSRLMDIRNGMFNALMHRSKESFVMPRIATCDDIELEGRLRRMNIWRTSDGTRFRTRSTTANLNMNNNNNNECMPAFFKNKNKPNLISDESIIQSQPPQPQTEFQDPAIVNQRRIGSGRLNHSKWGYNDEDYHSYHNGKSQHMEEVNSKNSKNMTVLQFFDNGEISSQPQRRPNTPVMGMSINRSENDTLHSNESSEDLSRANENYVKRVMSGFLVVSKPKSRDVEDRHHRRYRNQNEEPEWFSCGPTSRLDTIELCGFDEDEEKMLKEGNKNHGLGETERETSKQKMDHKYKWTHAEPMGRSKYMPKHDTNNNHNVENMNNVMATEHQQQKEEKRPGSGRSFQFDKFNQSQQNYESSSYVNHQQPPQTQPQQMQQQSNTNTNNSKFMSFFANEGNSSSSSLNEFFKQAINQGHGNNPEQPKSLGHIGQMPSVDQLEAKWRRNSLNNVGETANKQTDNFQKLIGSLSSAKPQSQAVGYDAISNFIMQQQQYQQQQQKQHLIIQQQQQHTAFLASLQLKAILGRADTQLLLLRLTKGEISKHGLLVQLANPRLTDMDREAITAVLQFTNTQQQQQQHKQQLDMLSSTVIASQLQNLHNLAIVQQTLAARQQPQHNPQTQAPHQLSQEDLQAHANVIMRNAVMKRKIEEQTSKLINGGAKHQAQQQYLNRGQQRQARPDANSNALLHALISGGGNNHASGYPMNGQPQKHHSNLRFGDNQNFQSFESNQPHFATQYKQQYQQSQQQHPHQQPQQLNSLHQNNAGAVNSFNKAQMQAQSAISMLPNSGDEFH
B1: the binding result in assay [1] and in assay [2] was “no binding” in each case.

B2: Smaug NTD (70-281) S250E/L253E (domain or fragment, UniProt Q23972 70-281)
chain: SNALFCEQVTTVTNLFEKWNDCERTVVMYALLKRLRYPSLKFLQYSIDSNLTQNLGTSQTNLSSVVIDINANNPVYLQNLLNAYKTFQPCDLLDAMSSSSSDKDSMPCYGSDFQITTSAQCDERKLYARKEDILHEVLNMLPLLKPGNEEAKLIYLTLIPVAVKDTMQQIVPTELVQQIFEYLEIHPAITSEDRRSLNIWLRHLEDHIQAAA
B2: the binding result in assay [3] is recorded as “no binding”.

B3: Smaug NTD (Smaug 1-281), ReLo (domain or fragment, UniProt Q23972 1-281)
chain: MKYATGTDNAMTSGISGQTNNSNSASNEMQPTTSTPTAAHKEATSTATTTATYANGNPNSNANPSQSQPSNALFCEQVTTVTNLFEKWNDCERTVVMYALLKRLRYPSLKFLQYSIDSNLTQNLGTSQTNLSSVVIDINANNPVYLQNLLNAYKTFQPCDLLDAMSSSSSDKDSMPCYGSDFQITTSAQCDERKLYARKEDILHEVLNMLPLLKPGNEEAKLIYLTLIPVAVKDTMQQIVPTELVQQIFSYLLIHPAITSEDRRSLNIWLRHLEDHIQAAA
B3: the binding result in assay [4] and in assay [5] was “binds” throughout.

B4: Smaug (ReLo, without membrane anchor) (protein, UniProt Q23972 1-999)
chain: MKYATGTDNAMTSGISGQTNNSNSASNEMQPTTSTPTAAHKEATSTATTTATYANGNPNSNANPSQSQPSNALFCEQVTTVTNLFEKWNDCERTVVMYALLKRLRYPSLKFLQYSIDSNLTQNLGTSQTNLSSVVIDINANNPVYLQNLLNAYKTFQPCDLLDAMSSSSSDKDSMPCYGSDFQITTSAQCDERKLYARKEDILHEVLNMLPLLKPGNEEAKLIYLTLIPVAVKDTMQQIVPTELVQQIFSYLLIHPAITSEDRRSLNIWLRHLEDHIQAAAAGLTNRSYFLQPSPQLVAGGSSTGSGSCSSSATSSSTASCSSVASSSLCPASGSRSSRTNDWQTIAPPSKQLQNKLAGDWRGNGGGSSSGSINPLCDNLNGITLNELASSQNSLGLSLEGSSSLVNGVVAGAGSMLGIAGGDDHDTSFSKNGTEILDFDPVTADMGEACSLASSSLCGRNGGNPVEDRSQPPPNLQQQLLQPPPYASILMGNVGDQFGEINRWSLDSKIAALKTRRSNSLTTQTISSCSSSSNSSVITVNDNCSNSTENLAQFANKPRSFSLSIEHQRGALMNSGSDTRLDEFKPNYIKFHTRNVGMSGIGLWLKSLRLHKYIELFKNMTYEEMLLITEDFLQSVGVTKGASHKLALCIDKLKERANILNRVEQELLSGQMELSTAVEELTNIVLTPMKPLESPGPPEENIGLRFLKVIDIVTNTLQQDPYAVQDDETLGVLMWILDRSIHNEAFMNHASQLKDLKFKLSKMKISMVPKMHHVKPAGVGPNNGNINKPRWNGKTRKCDTKNGSNDRINNRKNSNDMLNFSLNCLPHPLPHHSQQAPPPLPQFDYNGYGGGPSHQPQYKSSSYPSFMGNPQQQPPPPPSSKSHHHPQQMQQMLQQHNHFPALPQQTPPQSHRRSLNNLILVAGGPQQPQQLIFKPGQGVLTNNGSNDNLVLERNQQSQQQQQQRKLSGGVSSAEQQPKKTMAAVVMENLAKFDQHFTLF
Regarding B4, the binding entry in assay [6] and in assay [7] was “binds” each time.

(Values after paper doi:10.1101/2023.02.19.529116.)
